Measured values: publication PMC11949052
Residue numbers refer to the chain shown, from its start. Names and notes keep the numbering of the source. These are yes or no findings as the source states them, for the method shown. Some binding calls cover weakened binding; strength is not graded here.

By UniProt entry, the sequences of proteins in these tests, tags left out. Where a name states a change or a piece, a line headed by the entry shows the natural chain unless it says otherwise.
UniProt P03952: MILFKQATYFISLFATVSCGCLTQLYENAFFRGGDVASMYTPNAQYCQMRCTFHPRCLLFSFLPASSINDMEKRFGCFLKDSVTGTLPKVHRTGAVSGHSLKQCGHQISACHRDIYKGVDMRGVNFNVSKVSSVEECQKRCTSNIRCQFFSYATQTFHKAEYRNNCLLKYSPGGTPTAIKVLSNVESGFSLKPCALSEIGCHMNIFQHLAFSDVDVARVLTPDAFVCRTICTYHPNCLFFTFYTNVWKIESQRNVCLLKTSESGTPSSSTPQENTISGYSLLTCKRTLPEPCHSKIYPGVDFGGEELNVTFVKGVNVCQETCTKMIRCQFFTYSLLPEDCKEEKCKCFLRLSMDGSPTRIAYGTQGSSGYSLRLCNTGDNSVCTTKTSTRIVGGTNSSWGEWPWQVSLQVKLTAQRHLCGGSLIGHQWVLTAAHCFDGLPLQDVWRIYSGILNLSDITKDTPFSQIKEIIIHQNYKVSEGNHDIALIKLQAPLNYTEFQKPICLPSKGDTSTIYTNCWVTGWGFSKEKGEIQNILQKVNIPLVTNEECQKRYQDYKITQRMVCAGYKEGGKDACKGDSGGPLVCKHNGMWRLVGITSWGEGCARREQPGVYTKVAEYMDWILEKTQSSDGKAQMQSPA

T1: activated C1s (C1s̄) (UniProt P09871)
T1 sequence (chain, biotinylated | biotinylated) 1: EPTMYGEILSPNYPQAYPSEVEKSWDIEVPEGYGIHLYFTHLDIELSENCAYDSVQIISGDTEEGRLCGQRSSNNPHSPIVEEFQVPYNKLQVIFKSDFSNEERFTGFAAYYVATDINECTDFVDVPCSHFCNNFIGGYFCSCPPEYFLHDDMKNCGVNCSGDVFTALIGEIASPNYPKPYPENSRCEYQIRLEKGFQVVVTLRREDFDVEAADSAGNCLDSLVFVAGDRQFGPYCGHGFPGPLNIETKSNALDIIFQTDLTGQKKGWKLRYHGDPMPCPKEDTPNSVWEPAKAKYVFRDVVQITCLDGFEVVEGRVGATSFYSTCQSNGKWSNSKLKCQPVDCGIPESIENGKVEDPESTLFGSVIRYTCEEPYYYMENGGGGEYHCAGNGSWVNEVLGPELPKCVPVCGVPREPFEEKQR
T1 sequence (chain, biotinylated | biotinylated) 2: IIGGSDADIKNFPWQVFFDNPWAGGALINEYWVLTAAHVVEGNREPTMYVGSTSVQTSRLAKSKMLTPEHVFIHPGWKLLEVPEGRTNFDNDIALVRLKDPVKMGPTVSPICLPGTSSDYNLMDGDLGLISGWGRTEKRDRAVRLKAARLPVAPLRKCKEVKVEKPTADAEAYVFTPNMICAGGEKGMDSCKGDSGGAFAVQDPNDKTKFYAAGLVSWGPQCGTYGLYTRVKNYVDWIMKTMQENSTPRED

B1: C1-INH S255T (protein, UniProt P05155 23-500)
chain: NPNATSSSSQDPESLQDRGEGKVATTVISKMLFVEPILEVSSLPTTNSTTNSATKITANTTDEPTTQPTTEPTTQPTIQPTQPTTQLPTDSPTQPTTGSFCPGPVTLCSDLESHSTEAVLGDALVDFSLKLYHAFSAMKKVETNMAFSPFSIASLLTQVLLGAGENTKTNLESILSYPKDFTCVHQALKGFTTKGVTSVSQIFHSPDLAIRDTFVNASRTLYSSSPRVLSNNTDANLELINTWVAKNTNNKISRLLDSLPSDTRLVLLNAIYLSAKWKTTFDPKKTRMEPFHFKNSVIKVPMMNSKKYPVAHFIDQTLKAKVGQLQLSHNLSLVILVPQNLKHRLEDMEQALSPSVFKAIMEKLEMSKFQPTLLTLPRIKVTTSQDMLSIMEKLEFFDFSYDLNLCGLTEDPDLQVSAMQHQTVLELTETGVEAAAASAISVARTLLVFEVQQPFLFVLWDQQHKFPVFMGRVYDPRA
B2: C1-INH N271A (protein, UniProt P05155 23-500)
chain: B1 chain with T233S, N249A
B3: C1-INH N271del (protein, UniProt P05155 23-500)
chain: NPNATSSSSQDPESLQDRGEGKVATTVISKMLFVEPILEVSSLPTTNSTTNSATKITANTTDEPTTQPTTEPTTQPTIQPTQPTTQLPTDSPTQPTTGSFCPGPVTLCSDLESHSTEAVLGDALVDFSLKLYHAFSAMKKVETNMAFSPFSIASLLTQVLLGAGENTKTNLESILSYPKDFTCVHQALKGFTTKGVTSVSQIFHSPDLAIRDTFVNASRTLYSSSPRVLSNNSDANLELINTWVAKNTNKISRLLDSLPSDTRLVLLNAIYLSAKWKTTFDPKKTRMEPFHFKNSVIKVPMMNSKKYPVAHFIDQTLKAKVGQLQLSHNLSLVILVPQNLKHRLEDMEQALSPSVFKAIMEKLEMSKFQPTLLTLPRIKVTTSQDMLSIMEKLEFFDFSYDLNLCGLTEDPDLQVSAMQHQTVLELTETGVEAAAASAISVARTLLVFEVQQPFLFVLWDQQHKFPVFMGRVYDPRA
B4: C1-INH N272A (protein, UniProt P05155 23-500)
chain: B1 chain with T233S, N250A
B5: C1-INH N272del (protein, UniProt P05155 23-500)
chain: B3 chain
B6: C1-INH N272D (protein, UniProt P05155 23-500)
chain: B1 chain with T233S, N250D
B7: C1-INH N271-N272del (protein, UniProt P05155 23-500)
chain: NPNATSSSSQDPESLQDRGEGKVATTVISKMLFVEPILEVSSLPTTNSTTNSATKITANTTDEPTTQPTTEPTTQPTIQPTQPTTQLPTDSPTQPTTGSFCPGPVTLCSDLESHSTEAVLGDALVDFSLKLYHAFSAMKKVETNMAFSPFSIASLLTQVLLGAGENTKTNLESILSYPKDFTCVHQALKGFTTKGVTSVSQIFHSPDLAIRDTFVNASRTLYSSSPRVLSNNSDANLELINTWVAKNTKISRLLDSLPSDTRLVLLNAIYLSAKWKTTFDPKKTRMEPFHFKNSVIKVPMMNSKKYPVAHFIDQTLKAKVGQLQLSHNLSLVILVPQNLKHRLEDMEQALSPSVFKAIMEKLEMSKFQPTLLTLPRIKVTTSQDMLSIMEKLEFFDFSYDLNLCGLTEDPDLQVSAMQHQTVLELTETGVEAAAASAISVARTLLVFEVQQPFLFVLWDQQHKFPVFMGRVYDPRA
B8: C1-INH K273del (protein, UniProt P05155 23-500)
chain: B3 chain with K250N
modifications: additional N-linked glycan at N272 (new sequon NN272IS)
B9: C1-INH A239D (protein, UniProt P05155 23-500)
chain: B1 chain with A217D, T233S

Target: T1, activated C1s (C1s̄)
Assay: ELISA; Quidel kit: C1-INH (transfectant supernatant) incubated with biotinylated C1s̄, the complex captured on streptavidin-coated wells, detected with goat anti-human C1-INH Ab; C1-INH at 125 ng/mL, 250 ng/mL, 500 ng/mL and 1 μg/mL; relative absorbance (450 nm) against WT; only the target purified

Binder | binding
B1 | binds
B2 | binds
B3 | binds
B4 | binds
B5 | binds
B6 | binds
B7 | binds
B8 | binds
B9 | binds

Target: kallikrein (PKa) (human) (UniProt P03952)
Assay: ELISA; biotinylated FXIIa or PKa (25 μL of 2 μg/mL) with an equivalent molar amount of C1-INH (transfectant supernatant) in 2% BSA in PBS-T on a streptavidin-coated plate, 1 hour at 37°C; bound complex detected with anti-C1-INH mAb; serially diluted samples; relative absorbance against WT; only the target purified

Binder | binding
B1 | binds
B2 | binds
B3 | binds
B4 | binds
B5 | binds
B6 | binds
B7 | binds
B8 | binds
B9 | binds
